Reference: article PMC7862700
The list shows a part of the results, in another mix than the full data. For part of these data: At the low end of the ranking the order means little. The list shows a part of the results. For part of these data: The source does not settle which construct or isoform was used.

Chains of the proteins cited; added tags and fusions are not shown. Lines headed by an entry give the natural chain unless they say otherwise; changes in a name come on top.
UniProt P32519: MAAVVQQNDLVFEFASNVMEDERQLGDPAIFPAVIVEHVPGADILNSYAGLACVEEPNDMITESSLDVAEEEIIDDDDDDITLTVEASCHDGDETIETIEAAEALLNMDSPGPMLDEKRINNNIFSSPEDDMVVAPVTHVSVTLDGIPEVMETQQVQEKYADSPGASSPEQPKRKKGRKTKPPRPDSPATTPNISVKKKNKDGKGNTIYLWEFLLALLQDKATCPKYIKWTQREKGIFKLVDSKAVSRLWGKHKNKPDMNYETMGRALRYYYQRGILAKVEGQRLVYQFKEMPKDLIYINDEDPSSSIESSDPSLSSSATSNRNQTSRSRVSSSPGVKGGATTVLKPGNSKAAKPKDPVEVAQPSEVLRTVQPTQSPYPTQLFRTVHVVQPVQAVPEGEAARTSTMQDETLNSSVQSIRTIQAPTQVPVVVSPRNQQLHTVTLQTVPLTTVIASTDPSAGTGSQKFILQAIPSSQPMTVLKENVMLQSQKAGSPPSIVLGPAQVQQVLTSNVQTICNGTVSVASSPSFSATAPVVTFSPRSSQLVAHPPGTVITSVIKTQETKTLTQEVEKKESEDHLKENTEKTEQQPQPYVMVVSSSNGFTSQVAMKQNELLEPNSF
UniProt P50549: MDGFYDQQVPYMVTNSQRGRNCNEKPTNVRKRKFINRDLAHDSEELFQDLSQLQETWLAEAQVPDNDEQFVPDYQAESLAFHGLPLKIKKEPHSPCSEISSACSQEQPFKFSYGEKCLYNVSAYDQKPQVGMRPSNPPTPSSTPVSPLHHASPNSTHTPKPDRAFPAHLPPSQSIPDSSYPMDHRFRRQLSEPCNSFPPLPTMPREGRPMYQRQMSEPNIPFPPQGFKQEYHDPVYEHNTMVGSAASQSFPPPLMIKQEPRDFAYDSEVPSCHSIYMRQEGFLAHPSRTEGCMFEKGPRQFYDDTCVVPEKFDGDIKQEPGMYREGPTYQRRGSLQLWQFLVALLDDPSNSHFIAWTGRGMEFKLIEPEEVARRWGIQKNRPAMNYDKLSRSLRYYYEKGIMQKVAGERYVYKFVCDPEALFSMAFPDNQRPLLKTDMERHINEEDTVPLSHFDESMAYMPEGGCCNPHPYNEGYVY

Key:
Experiment in all cases: DAPPL (digital affinity profiling via proximity ligation, sequencing)
Details in all cases: 10 mM Tris-HCl pH 7.5, 50 mM NaCl, 1 mM DTT, 4% glycerol, room temperature, 30 min; GST-TFs on glutathione beads, 16-mer random dsDNA library, 0.1% …; high values mean tight binding; double strand, one strand shown; scale: fold enrichment (6-mer frequency, TF over GST control)
[1] = target: T1, ERG (UniProt P11308)
T1 sequence: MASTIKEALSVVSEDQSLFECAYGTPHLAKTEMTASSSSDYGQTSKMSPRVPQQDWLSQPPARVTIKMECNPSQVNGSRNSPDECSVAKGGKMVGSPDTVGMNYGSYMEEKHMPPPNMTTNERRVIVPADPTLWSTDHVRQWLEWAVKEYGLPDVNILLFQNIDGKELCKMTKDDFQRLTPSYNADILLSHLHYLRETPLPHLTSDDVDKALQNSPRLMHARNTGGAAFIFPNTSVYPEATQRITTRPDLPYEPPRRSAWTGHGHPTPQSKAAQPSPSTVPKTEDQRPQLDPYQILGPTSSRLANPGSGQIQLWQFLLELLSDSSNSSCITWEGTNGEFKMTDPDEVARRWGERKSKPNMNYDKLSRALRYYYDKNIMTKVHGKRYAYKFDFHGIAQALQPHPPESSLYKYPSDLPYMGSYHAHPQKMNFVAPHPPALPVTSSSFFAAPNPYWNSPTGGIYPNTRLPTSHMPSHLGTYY

[2] = target: ELF1 (UniProt P32519)
[3] = target: T2, ELK4 (UniProt P28324-2)
T2 sequence: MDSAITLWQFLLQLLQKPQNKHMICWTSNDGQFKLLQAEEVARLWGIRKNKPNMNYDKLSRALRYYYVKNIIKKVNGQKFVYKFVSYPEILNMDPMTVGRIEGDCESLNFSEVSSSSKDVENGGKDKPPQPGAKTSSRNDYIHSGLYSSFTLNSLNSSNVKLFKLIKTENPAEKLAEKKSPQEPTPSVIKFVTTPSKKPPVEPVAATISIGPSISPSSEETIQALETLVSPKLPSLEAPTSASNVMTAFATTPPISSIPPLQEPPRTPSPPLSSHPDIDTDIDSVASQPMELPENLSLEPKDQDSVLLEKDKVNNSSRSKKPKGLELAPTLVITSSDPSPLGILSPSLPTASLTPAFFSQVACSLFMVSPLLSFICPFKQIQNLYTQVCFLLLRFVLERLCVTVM

[4] = target: T3, ETV4 (UniProt P43268)
T3 sequence: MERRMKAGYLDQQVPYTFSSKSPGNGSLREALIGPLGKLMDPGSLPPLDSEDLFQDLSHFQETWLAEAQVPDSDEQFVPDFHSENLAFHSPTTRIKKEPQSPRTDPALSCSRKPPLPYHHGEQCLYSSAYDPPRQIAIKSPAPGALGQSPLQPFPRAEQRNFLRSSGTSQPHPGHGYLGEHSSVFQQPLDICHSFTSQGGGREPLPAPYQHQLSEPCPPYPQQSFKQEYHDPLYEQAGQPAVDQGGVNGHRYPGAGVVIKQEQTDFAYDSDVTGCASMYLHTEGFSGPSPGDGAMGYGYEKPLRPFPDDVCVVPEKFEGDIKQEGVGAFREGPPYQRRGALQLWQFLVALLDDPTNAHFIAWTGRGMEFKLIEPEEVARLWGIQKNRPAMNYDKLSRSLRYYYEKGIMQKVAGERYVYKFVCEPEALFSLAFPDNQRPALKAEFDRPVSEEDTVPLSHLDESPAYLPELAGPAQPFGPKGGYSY

[5] = target: ETV1 (UniProt P50549)
[6] = target: T4, ERF (UniProt P50548)
T4 sequence: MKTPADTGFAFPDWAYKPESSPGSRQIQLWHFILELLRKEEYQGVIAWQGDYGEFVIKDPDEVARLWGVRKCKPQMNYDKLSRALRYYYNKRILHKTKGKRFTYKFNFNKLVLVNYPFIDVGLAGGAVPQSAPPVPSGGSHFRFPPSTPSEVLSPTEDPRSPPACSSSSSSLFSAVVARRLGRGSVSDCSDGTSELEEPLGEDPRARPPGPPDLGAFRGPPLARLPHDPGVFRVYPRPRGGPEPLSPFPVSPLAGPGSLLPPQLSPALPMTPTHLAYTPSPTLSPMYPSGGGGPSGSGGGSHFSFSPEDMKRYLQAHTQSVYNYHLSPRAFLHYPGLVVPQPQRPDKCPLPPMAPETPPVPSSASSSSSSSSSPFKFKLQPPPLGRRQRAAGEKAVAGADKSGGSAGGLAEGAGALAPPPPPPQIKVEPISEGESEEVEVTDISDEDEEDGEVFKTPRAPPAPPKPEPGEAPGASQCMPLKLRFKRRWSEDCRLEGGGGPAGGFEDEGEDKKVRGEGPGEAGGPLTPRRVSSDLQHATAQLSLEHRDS

| Sequence | binding signal [1] | binding signal [2] | binding signal [3] | binding signal [4] | binding signal [5] | binding signal [6] |
| --- | --- | --- | --- | --- | --- | --- |
| GATCGC | 0.868 | 0.849 | 0.878 | 0.866 | 0.812 | 0.902 |
| CGTTGA | 0.881 | 0.807 | 0.93 | 0.834 | 0.752 | 0.853 |
| GTCTGA | 0.742 | 0.815 | 0.687 | 0.829 | 0.68 | 0.847 |
| AGACGC | 0.691 | 0.713 | 0.726 | 0.726 | 0.697 | 0.717 |
| GAGATT | 0.668 | 0.717 | 0.702 | 0.699 | 0.718 | 0.665 |
| CGAGCC | 0.853 | 0.912 | 0.924 | 0.905 | 0.888 | 0.869 |
| ATCGGG | 0.449 | 0.432 | 0.479 | 0.467 | 0.471 | 0.465 |
| TAGACC | 0.822 | 0.87 | 0.787 | 0.864 | 0.815 | 0.856 |
| GGGCCA | 0.693 | 0.746 | 0.683 | 0.694 | 0.68 | 0.759 |
| TGAAGT | 0.762 | 0.736 | 0.766 | 0.735 | 0.764 | 0.817 |
| ATGAGT | 0.679 | 0.717 | 0.651 | 0.702 | 0.711 | 0.686 |
| GGAACG | 0.597 | 0.603 | 0.617 | 0.588 | 0.612 | 0.54 |
| AGCACC | 0.978 | 0.953 | 0.845 | 0.923 | 0.906 | 1.03 |
| CCAGGA | 0.666 | 0.661 | 0.593 | 0.65 | 0.729 | 0.654 |
| GGGCAC | 0.792 | 0.802 | 0.853 | 0.808 | 0.74 | 0.764 |
| GCACAG | 0.761 | 0.759 | 0.813 | 0.734 | 0.76 | 0.758 |
| AAGCCA | 0.885 | 0.879 | 1.02 | 0.843 | 0.92 | 0.848 |
| ATCCAG | 0.853 | 0.843 | 0.927 | 0.832 | 0.866 | 0.895 |
| GGGTCC | 0.849 | 0.807 | 0.716 | 0.805 | 0.838 | 0.859 |
| GTAGTA | 0.901 | 0.882 | 0.853 | 0.905 | 0.935 | 0.818 |
| ACGAGA | 0.647 | 0.667 | 0.682 | 0.702 | 0.648 | 0.629 |
| ACGCAA | 0.901 | 0.94 | 0.964 | 0.904 | 0.99 | 0.942 |
| CGTGAT | 0.453 | 0.473 | 0.579 | 0.486 | 0.472 | 0.481 |

A few values from the list:
Under binding signal [5], ACGCAA is entered as 0.99
Under binding signal [2], GGGCAC is entered as 0.802

(further entries)

| Sequence | binding signal [1] | binding signal [2] | binding signal [3] | binding signal [4] | binding signal [5] | binding signal [6] |
| --- | --- | --- | --- | --- | --- | --- |
| CGCGTG | 0.686 | 0.659 | 0.746 | 0.659 | 0.721 | 0.617 |
| GCCAAA | 0.881 | 0.96 | 0.87 | 0.926 | 0.859 | 0.869 |
| GGCAAG | 0.682 | 0.708 | 0.727 | 0.699 | 0.778 | 0.775 |
| CAAGAG | 0.728 | 0.818 | 0.707 | 0.75 | 0.748 | 0.806 |
| CAGACG | 0.482 | 0.476 | 0.511 | 0.462 | 0.51 | 0.504 |
| AGACCG | 0.481 | 0.481 | 0.411 | 0.499 | 0.503 | 0.5 |
| TAGAGC | 0.711 | 0.783 | 0.783 | 0.795 | 0.755 | 0.838 |
| GACCAT | 0.823 | 0.798 | 0.869 | 0.915 | 0.786 | 0.821 |
| CGGAGA | 0.232 | 0.204 | 0.222 | 0.203 | 0.215 | 0.214 |
| TGTCGG | 0.344 | 0.352 | 0.342 | 0.349 | 0.342 | 0.356 |
| TGAGAC | 0.499 | 0.509 | 0.579 | 0.542 | 0.457 | 0.559 |
| CATGAG | 0.657 | 0.683 | 0.744 | 0.695 | 0.676 | 0.702 |
| AGACAA | 0.804 | 0.803 | 0.85 | 0.799 | 0.772 | 0.878 |
| AGAGGA | 0.685 | 0.652 | 0.59 | 0.656 | 0.653 | 0.645 |
| AGGCAA | 0.728 | 0.735 | 0.738 | 0.712 | 0.745 | 0.617 |
| GCGGTG | 0.496 | 0.517 | 0.552 | 0.495 | 0.549 | 0.546 |
| AGGTTA | 0.75 | 0.779 | 0.925 | 0.787 | 0.775 | 0.751 |
| GCACCA | 0.861 | 0.85 | 0.913 | 0.829 | 0.827 | 0.919 |
| GCACGG | 0.814 | 0.827 | 0.817 | 0.83 | 0.801 | 0.909 |
| AAGCGT | 0.92 | 0.877 | 0.928 | 0.802 | 0.889 | 0.974 |
| GGGACC | 0.667 | 0.69 | 0.732 | 0.708 | 0.684 | 0.656 |
| GCCGTT | 0.769 | 0.837 | 0.765 | 0.807 | 0.829 | 0.845 |
| AACGTG | 0.378 | 0.387 | 0.419 | 0.354 | 0.371 | 0.416 |
